The campaign covered roughly 200,000 compounds. About 25 (0.01%) were called active. The shares of active, inactive and inconclusive entries below differ from those in the screen. Calls follow the shape of the dose curve; as a rule, active = well fitted inhibition curve with a large enough effect in the signal ratio, with a control signal flat (not every such curve was filed as active); inconclusive = small, poorly fitted or top-dose-only effect, or effect the other way, or a change in a side signal; inactive = flat fitted curve, though single readings scatter; the % refers to the signal ratio. Where the call is inconclusive, the potency comes from a doubtful curve fit.
Test: qHTS Assay for Modulators of Lamin A Splicing
Details: HeLa LMNA splicing GFP/RFP minigene ratio, 48 h; ratio change, negative = inhibition: at 46.1 µM (top of the series) unless noted
How it was run: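 S3 HeLa cells stably expressing lamin A-EGFP splicing minigene plus DsRed2, 600 cells/well, 48 h compound exposure at 37C. Laser-scanning cytometry; analysed as GFP (500-530 nm)/RFP (575-640 nm) total intensity ratio; 0.5% DMSO vehicle.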
% is scaled to controls: 0 for no effect and ±100 for the full control effect; potency is read from the fitted curve at half-maximal effect.

Compound	ratio change, negative = inhibition	Potency
Cc1ccc(OCC(=O)NCC(c2ccc(Cl)cc2)N2CCCCC2)cc1 (stereo unspecified)	inconclusive: -21.3% [at 46 µM]	
O=Cc1ccccc1C=O		inconclusive: 17.8 µM [activator, single point]
CCOC(=O)C1=C(C)NC(C)=C(C(=O)OCC)C1/C=C/c1ccccc1OC		inconclusive: 35.5 µM [fluorescent, partial curve, poor fit]
Cc1nc2cc(C(F)(F)F)ccc2n1C1CCN(CC(=O)NC(C)(C)C)CC1	inconclusive: -27.8%	
C=CCSc1nc2ccccc2n1S(=O)(=O)c1ccc(C)cc1	inactive: -14.1%	
CCOc1ccc(-c2n[nH]c(C)c2Oc2ccccc2OC)c(O)c1		inconclusive: 35.5 µM [falling, single point]
CC1(C)Cc2c(C#N)c(N3CCN(C(=O)c4ccccc4Cl)CC3)nc(-c3ccco3)c2CS1	inactive: 8.46%	
Cc1ccc(NS(=O)(=O)c2cnc(N)nc2)c(C)c1	inconclusive: 1.45% [at 46 µM]	
CN(C)S(=O)(=O)c1ccc(C(=O)Nc2ccccc2SCCC#N)cc1	inconclusive: 6.43% [at 9.22 µM]	
COc1ccc(N=c2oc3c(OC)cccc3cc2C(=O)NCc2ccco2)cc1OC	inactive: -1.24%	
Oc1ccc(N2CCN(C(=S)NCc3ccccc3)CC2)cc1		inconclusive: 10 µM [inhibitor, partial curve]
COCCNC(=S)N/N=C(\C)c1cccc(C(F)(F)F)c1	inconclusive: 2.62% [at 46 µM]	
COc1ccc(OC)c2[nH]c(=O)c(CCNC(C)=O)cc12	inactive: -5.31%	
COc1cc2[nH]c(=S)n(Cc3ccccc3)c(=O)c2cc1OC	inactive: 12.9% [at 46 µM]	
Nc1cccc(NC(=O)c2cccs2)c1	inactive: 9.46%	
O=C(Cn1c(=O)nc(-c2ccccc2F)c2cc(Cl)ccc21)Nc1ccccc1C(F)(F)F	inconclusive: -36.4% [at 46 µM]	
O=C(Nc1ccc(Nc2ccccc2)cc1)C(Cl)(Cl)Cl	inconclusive: 10.8%	
Cc1ccc(Cn2nc(C)c(NC(=O)CCCn3nc([N+](=O)[O-])c(Cl)c3C)c2C)cc1	inactive: -4.75%	
COc1cc(C(=O)OCCCN2CCCN(CCCOC(=O)c3cc(OC)c(OC)c(OC)c3)CC2)cc(OC)c1OC		inconclusive: 2 µM [inhibitor, partial curve, poor fit]
COCCn1c(C)cc(C(=O)CSc2nncn2-c2ccccc2)c1C	inconclusive: 10.6%	
CCCC/C(O)=C1\C(=O)CC(C)(C)CC1=Nc1ccc(OC)cc1		inconclusive: 15.8 µM [fluorescent, single point]

Compound	ratio change, negative = inhibition	Potency
Cc1sc(NC(=O)C2CCCC2)c(C#N)c1C	inactive: -0.253%	
CCCSc1ccc(C(=O)Nc2ccc(Cl)cc2)cn1	inconclusive: 6.69% [at 46 µM]	
Cn1c(C(=O)O)cc2cc(F)ccc21	inactive: 2.93%	
COc1ccc(Cl)cc1NC(=O)C1CCN(S(=O)(=O)c2ccc3c(c2)CCCN3C(=O)C2CCC2)CC1	inconclusive: -15.6% [at 46 µM]	
Cn1c(-c2ccccc2)cnc1SCC(=O)N1CCCc2ccccc21	inactive: -6.09%	
CCC(=O)c1ccc(NC(C)=O)cc1O	inconclusive: 11% [at 46 µM]	
Cn1cccc1/C=C1\CCC/C(=C\c2cccn2C)C1=O	inconclusive: 4.89%	
CCCOc1ccc(C2=NNC(=O)CC2)cc1	inconclusive: 64.7%	
CCOc1ccccc1Oc1coc2cc(OCC(=O)O)ccc2c1=O	inconclusive: 21.5% [at 46 µM]	
COc1ccccc1CNC(=O)C(=O)NCC(c1ccco1)N1CCOCC1 (stereo unspecified)	inconclusive: 4.8% [at 46 µM]	
Cc1ccc(C)n1-c1cccc(S(=O)(=O)N2CCOCC2)c1	inconclusive: 5.18% [at 46 µM]	
O=C(O)c1ccc(N/N=C/c2cc3c(cc2[N+](=O)[O-])OCO3)cc1	inconclusive: 10.1% [at 46 µM]	
CNC(=O)CCCCCNS(=O)(=O)c1ccc(C)cc1	inactive: -3.96%	
Cc1cc(C)nc(SCc2ccc(C(=O)N/N=C3\CC(C)CC(C)(C)C3)cc2)n1 (stereo unspecified)	inactive: -8.88%	
COc1cccc(/C=N/NC(=O)C[n+]2ccccc2)c1O	inconclusive: -0.0612%	
COc1ccc(NS(=O)(=O)c2ccc(NC(=S)NC(=O)CC(C)C)cc2)cc1	inconclusive: -15.6%	
COc1ccc(OCC(O)Cn2c(Br)nc3c2c(=O)[nH]c(=O)n3C)cc1 (stereo unspecified)		inconclusive: 35.5 µM [falling, single point]
CC1=C(C(=O)OCc2ccc3c(c2)OCO3)C(c2ccccc2)NC(=O)N1 (stereo unspecified)	inconclusive: 31.6%	
COC1OC(CO)C(OC2OC(C(=O)O)C(OC3OC(COS(=O)(=O)O)C(OC4OC(C(=O)O)C(OC5OC(CO)C(OC6OC(C(=O)O)C(OC7OC(COS(=O)(=O)O)C(OC8OC(C(=O)O)=C[C@H](O)C8OS(=O)(=O)O)C(O)C7NC(C)=O)[C@@H](O)C6O)C(O)C5NC(C)=O)[C@@H](O)C4O)C(O)C3NC(C)=O)[C@@H](O)C2O)C(O)C1NC(C)=O (stereo partly specified)	inconclusive: -3.45%	
Cc1cccc(CNC(=O)CN2C(=O)C3CCCCN3c3ccc(C(=O)N4CCCC4)cc32)c1 (stereo unspecified)	inactive: 10.2% [at 46 µM]	
COc1ccc(CCNS(=O)(=O)c2ccc(F)c(C(=O)Nc3ccc(Cl)cc3)c2)cc1OC	inactive: -25.2% [at 46 µM]	

Compound	ratio change, negative = inhibition	Potency
CCOc1ccc(N=c2scc(-c3ccc(OC)cc3)n2CCO)cc1	inactive: -18.9%	
O=C(CCCn1c(=S)[nH]c2cc3c(cc2c1=O)OCO3)N1CCN(c2ccc(F)cc2)CC1	inconclusive: -13.7%	
CN(C)/C=C/C(=O)c1cnc(-c2ccccc2Cl)s1	inconclusive: -31.5% [at 46 µM]	
CCOC1=NN(c2ccc(Cl)cc2)C(=O)/C1=C\N(C)C	inconclusive: -12.6% [at 46 µM]	
CC(C(=O)Nc1sc2c(c1C(=O)NCC1CCCO1)CCC2)N1C(=O)c2ccccc2C1=O (stereo unspecified)	inconclusive: -5.5%	
COc1ccc(S(=O)(=O)NCCS(=O)(=O)N2CCN(c3ccccc3F)CC2)cc1	inconclusive: -17% [at 46 µM]	
COc1cccc(-n2c(SCC(=O)Nc3ccc(F)cc3F)nc3c([nH]c4ccccc43)c2=O)c1	inconclusive: 39% [at 46 µM]	
CCOc1ccccc1C(=O)NCC(c1ccc(N(C)C)cc1)N1CCc2ccccc21 (stereo unspecified)		inconclusive: 14.1 µM [inhibitor, partial curve, poor fit]
COc1ccc(-n2nc(C(=O)NCc3ccco3)c3c4ccccc4n(C)c3c2=O)cc1	inactive: -0.725%	
c1ncc(-c2ccoc2)c(NC2CC2)n1	inactive: 3.3%	
CC(C)NC(=O)CN1CCN(c2ncccn2)CC1	inactive: 2.33%	
CC(C)(C)c1nnc2sc(SCC(=O)c3ccc4c(c3)OCCO4)nn2c1=O		inconclusive: 5.62 µM [inhibitor, full curve, poor fit]
O=C(CCN1C(=O)c2ccccc2S1(=O)=O)Nc1ccccc1	inactive: 9.93% [at 46 µM]	
CCOC(=O)c1ccccc1NC(=O)Cn1cnc2c1c(=O)n(C)c(=O)n2C	inconclusive: 11.2%	
O=C(Nc1nnc(S(=O)(=O)N2CCCC2)s1)c1ccc(F)cc1	inconclusive: -2.45% [at 46 µM]	
O=[N+]([O-])c1cc(/C=N/O)ccc1N1CCCC1		inconclusive: 12.6 µM [activator, partial curve]
O=C(CSc1nnc(SCc2ccccc2)s1)N/N=C/C=C/c1ccccc1[N+](=O)[O-]	inactive: -11.3%	
O=C1c2c(O)cccc2Cc2cccc(O)c21	inconclusive: 27%	
COc1ccc(CCNC(=O)CSc2nc3ccccc3nc2Cc2ccc(Cl)cc2)cc1OC	inconclusive: 0.9% [at 46 µM]	
Cc1ccc(Nc2cc(C)nc(-c3ccccc3O)n2)cc1	inconclusive: 9.3%	
O=C(O)Cc1cn(Cc2ccc(F)cc2)c2ccccc12	inactive: -13.7% [at 46 µM]	

An excerpt of these results, as comma-separated lines:
Compound,"ratio change, negative = inhibition",Potency
CCOC1=NN(c2ccc(Cl)cc2)C(=O)/C1=C\N(C)C,inconclusive: -12.6% [at 46 µM],
CC(C(=O)Nc1sc2c(c1C(=O)NCC1CCCO1)CCC2)N1C(=O)c2ccccc2C1=O (stereo unspecified),inconclusive: -5.5%,
COc1ccc(S(=O)(=O)NCCS(=O)(=O)N2CCN(c3ccccc3F)CC2)cc1,inconclusive: -17% [at 46 µM],
COc1cccc(-n2c(SCC(=O)Nc3ccc(F)cc3F)nc3c([nH]c4ccccc43)c2=O)c1,inconclusive: 39% [at 46 µM],

Additional records follow:

Compound	ratio change, negative = inhibition	Potency
Cc1ccc(SCC(=O)NCCSCc2ccccc2)cc1	inconclusive: 4.3%	
O=c1cc(-c2ccc(O)cc2)oc2ccccc12	inactive: 16.8% [at 46 µM]	
CCOC(=O)Nc1nc(-c2ccc(Cl)cc2Cl)cs1	inconclusive: -47.8%	
CCOC(=O)c1ccc(S(=O)(=O)NCC(C)(C)N2CCOCC2)cc1	inconclusive: -13.7% [at 46 µM]	
O=C(c1cnc2n(c1=O)CCS2)N(c1ccccc1)C1CCCCC1	inactive: 6.76%	
CCOc1ccc(Cc2c(Cl)nc(SC)nc2N(C)C)cc1	inconclusive: -26.6%	
S=C(NCCc1ccccc1)Nc1ccc(Br)cn1	inconclusive: -5.59% [at 46 µM]	
Cc1ccccc1-n1nnnc1SCCCC(=O)c1ccc(F)cc1		inconclusive: 35.5 µM [falling, single point]
Cc1cccc(-n2nnnc2SCC(=O)NCCN2C(=O)CSC2=O)c1	inactive: 7.83%	
COc1ccccc1N1C(=O)C2CCC(c3ccccc3)CC2C1=O (stereo unspecified)	inconclusive: -12.3%	
Cc1cc(C)c(NC(=O)CN2C(=O)CCn3nc(-c4cccn4C)cc32)c(C)c1	inactive: -19.1% [at 46 µM]	
COc1ccc(/C=N/N(C)c2cc(=O)n(C)c(=O)[nH]2)cc1OC	inactive: 4.92% [at 46 µM]	
COc1ccc(CCNC(=O)COc2ccc(C)nc2[N+](=O)[O-])cc1	inconclusive: -9.3% [at 46 µM]	
COCCNC(=O)/C(C#N)=C/C=C/c1ccccc1	inconclusive: -35.5% [at 46 µM]	
CCn1c(-c2ccc(C)cc2)nn(CC(=O)NCCc2ccccc2)c1=S		inconclusive: 6.31 µM [fluorescent, full curve]
CCC(NC(=O)CCc1ccccc1)c1ccccc1 (stereo unspecified)	inactive: -11% [at 46 µM]	
Cn1ncc2c(N3CCN(c4cccc(Cl)c4)CC3)ncnc21	inconclusive: 0.686% [at 46 µM]	
CCCOc1cc(N)ccc1C(=O)OCCN(CC)CC		inconclusive: 0.0004 µM [inhibitor, full curve, poor fit]
